Reference: patent US20220363763A1
These are yes or no findings as the source states them, for the method shown. Some binding calls cover weakened binding; strength is not graded here. Blank lines part the entries; values can stand above or below the binder they belong to.

Sequences of proteins named here, by UniProt entry; tags and fusion partners are left off. A change or cut given only in a name is not applied to a line headed by its entry. A line that says so, or that is headed by a name, gives the form on record, which may keep a tag or linker.
rhesus PD-L1-Fc protein (F6PJN1, form named): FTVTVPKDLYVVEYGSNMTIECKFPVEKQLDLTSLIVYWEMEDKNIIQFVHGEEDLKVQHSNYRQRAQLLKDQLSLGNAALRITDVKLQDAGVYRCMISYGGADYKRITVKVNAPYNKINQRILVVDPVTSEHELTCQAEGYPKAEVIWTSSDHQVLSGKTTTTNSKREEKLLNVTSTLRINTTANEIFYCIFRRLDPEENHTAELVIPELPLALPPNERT

Columns and labels:
[1] = biological target: rhesus PD-L1-Fc protein (rhesus) (UniProt F6PJN1); assay: ELISA on coated rhesus PD-L1-Fc
[2] = biological target: rhesus PD-L1-Fc protein (rhesus) (UniProt F6PJN1); assay: ELISA (FIG. 8)
[3] = biological target: T1, biotin-labeled LAG3-ECD (Homo sapiens (Human)) (UniProt P18627); assay: ELISA on coated recombinant FGL-1; blocking of the binding of biotin-labeled LAG3-ECD to FGL-1
T1 sequence (chain, by the resolver, biotin label, site not stated): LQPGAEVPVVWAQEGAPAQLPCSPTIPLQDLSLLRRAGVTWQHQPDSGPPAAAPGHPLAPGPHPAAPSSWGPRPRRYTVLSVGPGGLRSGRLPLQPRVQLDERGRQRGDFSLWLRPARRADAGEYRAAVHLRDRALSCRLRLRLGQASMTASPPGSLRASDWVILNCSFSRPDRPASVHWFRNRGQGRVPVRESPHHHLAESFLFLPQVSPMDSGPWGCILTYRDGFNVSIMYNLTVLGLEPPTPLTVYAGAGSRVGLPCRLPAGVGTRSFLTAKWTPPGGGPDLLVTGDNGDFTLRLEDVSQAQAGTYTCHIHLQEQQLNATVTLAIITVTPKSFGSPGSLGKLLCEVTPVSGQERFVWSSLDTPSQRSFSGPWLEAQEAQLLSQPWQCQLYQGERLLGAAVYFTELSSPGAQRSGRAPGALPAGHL

binding [1]: binds | binding [2]: binds
B1: Hu1210-41 (antibody, V domains shown)
VH: EVQLVESGGGLVQPGGSLRLSCAASGFTFSSYDMSWVRQAPGKSLEWVATISDAGGYIYYSDSVKGRFTISRDNAKNSLYLQMNSLRDEDTAVYICAREFGKRYALDYWGQGTTVTVSS
VL: DIQMTQSPSSLSASVGDRVTITCKASQDVTPAVAWYQQKPGKAPKLLIYSTSSRYTGVPSRFSGSGSGTDFTFTISSLQPEDIATYYCQQHYTTPLTFGQGTKLEIK

binding [3]: binds
B2: 147H 3807 (antibody, V domains shown)
VH: EVQLVQSGAEVKKPGASVKVSCKASGYTFTNYWLGWIKQAPGQGLEWIGDIYPGGDYIVYNEKFKGKATLTADTSISTAYMELSRLRSDDTAVYYCARPNLPKDHWGQGTTVTVSS
VL: DIVMTQSPLSLPVTPGEPASISCRSSKSLLHSQGITYLYWYLQKPGQSPQLLIYQVSNLASGVPDRFSGSGSGTDFTLKISRVEAEDVGVYYCAQYLELPWTFGGGTKVEIK
